These are yes or no findings as the source states them, for the method shown. Binding seen in cells or lysates may run through a third protein. Some binding calls cover weakened binding; strength is not graded here.
How the values were obtained:
[1] = biological target: flag-JMJD3 T1044E (mouse) (UniProt Q5NCY0); test: co-IP; PMH transfected with flag-JMJD3 plasmids, vehicle or FGF21 for 30 min; PPARα in flag-JMJD3 immunoprecipitates detected by IB; CoIP buffer 50 mM Tris-HCl pH 8.0, 150 mM NaCl, 2 mM EDTA, 0.5% NP-40, 5% glycerol
[2] = biological target: Flag-mouse JMJD3 (WT-JMJD3) (mouse) (UniProt Q5NCY0); test: as above
[3] = biological target: JMJD3 (co-IP with PPARα, Supplementary Figs. 7c, e, f and 8g) (UniProt Q5NCY0); test: co-IP; nuclear fraction of FGF21-treated cells (Supplementary Fig. 8g)
[4] = biological target: JMJD3 (co-IP with PPARα, Supplementary Figs. 7c, e, f and 8g) (UniProt Q5NCY0); test: co-IP; treatment with WY14643, FGF21 or rapamycin (Supplementary Fig. 7c, e, f); cells and precipitating antibody not shown

Sequences of proteins named here, by UniProt entry; tags and fusion partners are left off. A change or cut given only in a name is not applied to a line headed by its entry.
UniProt Q5NCY0: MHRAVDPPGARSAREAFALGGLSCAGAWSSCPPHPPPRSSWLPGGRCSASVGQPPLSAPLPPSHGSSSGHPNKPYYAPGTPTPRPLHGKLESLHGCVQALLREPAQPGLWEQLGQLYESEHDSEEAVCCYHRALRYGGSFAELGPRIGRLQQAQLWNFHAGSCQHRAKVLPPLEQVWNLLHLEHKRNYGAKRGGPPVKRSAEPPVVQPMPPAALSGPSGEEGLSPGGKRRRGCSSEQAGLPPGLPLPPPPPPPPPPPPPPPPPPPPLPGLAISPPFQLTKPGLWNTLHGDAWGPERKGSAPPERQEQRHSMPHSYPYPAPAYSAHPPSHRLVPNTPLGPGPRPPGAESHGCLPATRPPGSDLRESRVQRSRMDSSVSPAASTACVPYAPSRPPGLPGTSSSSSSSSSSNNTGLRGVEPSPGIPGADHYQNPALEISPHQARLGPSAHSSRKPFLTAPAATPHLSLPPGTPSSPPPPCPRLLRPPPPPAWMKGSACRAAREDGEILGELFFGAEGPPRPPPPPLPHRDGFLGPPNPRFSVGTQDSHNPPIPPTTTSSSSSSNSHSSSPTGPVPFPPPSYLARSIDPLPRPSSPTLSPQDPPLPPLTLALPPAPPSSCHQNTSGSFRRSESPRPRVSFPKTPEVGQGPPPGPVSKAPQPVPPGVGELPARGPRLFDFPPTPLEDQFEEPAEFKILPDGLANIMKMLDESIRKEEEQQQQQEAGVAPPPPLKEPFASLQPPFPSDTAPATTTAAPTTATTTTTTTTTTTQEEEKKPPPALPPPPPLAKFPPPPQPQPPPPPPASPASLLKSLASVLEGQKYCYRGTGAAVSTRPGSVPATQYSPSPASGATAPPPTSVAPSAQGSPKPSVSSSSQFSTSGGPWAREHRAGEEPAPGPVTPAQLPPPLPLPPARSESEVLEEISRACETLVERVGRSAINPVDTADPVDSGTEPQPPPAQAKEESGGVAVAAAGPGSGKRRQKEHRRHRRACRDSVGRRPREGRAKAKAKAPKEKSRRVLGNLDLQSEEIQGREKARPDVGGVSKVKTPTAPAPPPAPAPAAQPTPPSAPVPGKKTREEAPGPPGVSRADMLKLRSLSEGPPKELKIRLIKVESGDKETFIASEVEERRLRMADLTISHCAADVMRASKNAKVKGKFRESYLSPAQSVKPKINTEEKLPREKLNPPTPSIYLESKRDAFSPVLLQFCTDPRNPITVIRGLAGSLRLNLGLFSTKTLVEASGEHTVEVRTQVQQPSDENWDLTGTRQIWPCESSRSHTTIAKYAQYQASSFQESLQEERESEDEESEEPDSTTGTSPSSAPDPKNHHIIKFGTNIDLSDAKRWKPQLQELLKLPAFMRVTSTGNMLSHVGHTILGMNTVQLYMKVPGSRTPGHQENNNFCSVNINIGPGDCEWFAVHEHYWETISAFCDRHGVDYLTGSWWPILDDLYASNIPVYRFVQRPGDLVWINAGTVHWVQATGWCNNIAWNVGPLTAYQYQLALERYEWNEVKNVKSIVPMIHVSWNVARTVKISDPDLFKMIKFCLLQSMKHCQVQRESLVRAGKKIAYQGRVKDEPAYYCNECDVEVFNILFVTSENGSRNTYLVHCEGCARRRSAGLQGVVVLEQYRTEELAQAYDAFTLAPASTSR

Measured: binding

B1: PPARα (receptor, UniProt P23204 1-468)
chain: MVDTESPICPLSPLEADDLESPLSEEFLQEMGNIQEISQSIGEESSGSFGFADYQYLGSCPGSEGSVITDTLSPASSPSSVSCPVIPASTDESPGSALNIECRICGDKASGYHYGVHACEGCKGFFRRTIRLKLVYDKCDRSCKIQKKNRNKCQYCRFHKCLSVGMSHNAIRFGRMPRSEKAKLKAEILTCEHDLKDSETADLKSLGKRIHEAYLKNFNMNKVKARVILAGKTSNNPPFVIHDMETLCMAEKTLVAKMVANGVEDKEAEVRFFHCCQCMSVETVTELTEFAKAIPGFANLDLNDQVTLLKYGVYEAIFTMLSSLMNKDGMLIAYGNGFITREFLKNLRKPFCDIMEPKFDFAMKFNALELDDSDISLFVAAIICCGDRPGLLNIGYIEKLQEGIVHVLKLHLQSNHPDDTFLFPKLLQKMVDLRQLVTEHAQLVQVIKKTESDAALHPLLQEIYRDMY
binds: all assays above

Reference: article PMC7010817
